# Data taken from paper PMC3431874, “A Novel Cyclodextrin Glycosyltransferase from Alkaliphilic Amphibacillus sp. NPST-10: Purification and Properties” (International Journal of Molecular Sciences, 2012).
# System: T1, CGTase from Amphibacillus sp. NPST-10
# T1 construct: gene cgt; native extracellular enzyme purified from culture supernatant (corn starch adsorption, DEAE-cellulose); 92 kDa by SDS-PAGE; monomer
# Assay: cyclization assay, phenolphthalein colorimetry
# Assay type: biochemical
# Conditions: 1% starch, 50 mM Tris-HCl pH 8, 50 °C; reaction product
# Excerpt: cyclization assay, phenolphthalein colorimetry on CGTase from Amphibacillus sp. NPST-10
row,Compound,Residual Activity (%) / 1 mM
1,OC[C@H]1O[C@@H]2O[C@H]3[C@H](O)[C@@H](O)[C@@H](O[C@H]4[C@H](O)[C@@H](O)[C@@H](O[C@H]5[C@H](O)[C@@H](O)[C@@H](O[C@H]6[C@H](O)[C@@H](O)[C@@H](O[C@H]7[C@H](O)[C@@H](O)[C@@H](O[C@H]8[C@H](O)[C@@H](O)[C@@H](O[C@H]9[C@H](O)[C@@H](O)[C@@H](O[C@H]1[C@H](O)[C@H]2O)O[C@@H]9CO)O[C@@H]8CO)O[C@@H]7CO)O[C@@H]6CO)O[C@@H]5CO)O[C@@H]4CO)O[C@@H]3CO [γ-CD],54.2 ± 1.8%
2,OC[C@H]1O[C@@H]2O[C@H]3[C@H](O)[C@@H](O)[C@@H](O[C@H]4[C@H](O)[C@@H](O)[C@@H](O[C@H]5[C@H](O)[C@@H](O)[C@@H](O[C@H]6[C@H](O)[C@@H](O)[C@@H](O[C@H]7[C@H](O)[C@@H](O)[C@@H](O[C@H]8[C@H](O)[C@@H](O)[C@@H](O[C@H]1[C@H](O)[C@H]2O)O[C@@H]8CO)O[C@@H]7CO)O[C@@H]6CO)O[C@@H]5CO)O[C@@H]4CO)O[C@@H]3CO [β-CD],45.7 ± 2.2%
3,OC[C@H]1O[C@@H]2O[C@H]3[C@H](O)[C@@H](O)[C@@H](O[C@H]4[C@H](O)[C@@H](O)[C@@H](O[C@H]5[C@H](O)[C@@H](O)[C@@H](O[C@H]6[C@H](O)[C@@H](O)[C@@H](O[C@H]7[C@H](O)[C@@H](O)[C@@H](O[C@H]1[C@H](O)[C@H]2O)O[C@@H]7CO)O[C@@H]6CO)O[C@@H]5CO)O[C@@H]4CO)O[C@@H]3CO [α-CD],68.7 ± 2.3%
